Assay results from paper PMC10622183.
Results are given in words; binding and its absence hold for the method and conditions named. In cells and extracts the contact can be indirect. Some binding calls cover weakened binding; strength is not graded here.

The chains behind the UniProt entries cited, without tags or fusion partners. Residues count along the entry.
UniProt Q8TDQ0, residues 22-301: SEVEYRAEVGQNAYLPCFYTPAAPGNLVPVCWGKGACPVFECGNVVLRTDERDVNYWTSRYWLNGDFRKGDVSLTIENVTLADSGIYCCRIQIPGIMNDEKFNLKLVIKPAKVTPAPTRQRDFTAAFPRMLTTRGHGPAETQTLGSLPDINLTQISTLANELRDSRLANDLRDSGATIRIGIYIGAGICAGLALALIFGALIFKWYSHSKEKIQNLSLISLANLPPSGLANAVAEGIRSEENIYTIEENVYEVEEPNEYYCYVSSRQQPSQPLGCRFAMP
UniProt P46379: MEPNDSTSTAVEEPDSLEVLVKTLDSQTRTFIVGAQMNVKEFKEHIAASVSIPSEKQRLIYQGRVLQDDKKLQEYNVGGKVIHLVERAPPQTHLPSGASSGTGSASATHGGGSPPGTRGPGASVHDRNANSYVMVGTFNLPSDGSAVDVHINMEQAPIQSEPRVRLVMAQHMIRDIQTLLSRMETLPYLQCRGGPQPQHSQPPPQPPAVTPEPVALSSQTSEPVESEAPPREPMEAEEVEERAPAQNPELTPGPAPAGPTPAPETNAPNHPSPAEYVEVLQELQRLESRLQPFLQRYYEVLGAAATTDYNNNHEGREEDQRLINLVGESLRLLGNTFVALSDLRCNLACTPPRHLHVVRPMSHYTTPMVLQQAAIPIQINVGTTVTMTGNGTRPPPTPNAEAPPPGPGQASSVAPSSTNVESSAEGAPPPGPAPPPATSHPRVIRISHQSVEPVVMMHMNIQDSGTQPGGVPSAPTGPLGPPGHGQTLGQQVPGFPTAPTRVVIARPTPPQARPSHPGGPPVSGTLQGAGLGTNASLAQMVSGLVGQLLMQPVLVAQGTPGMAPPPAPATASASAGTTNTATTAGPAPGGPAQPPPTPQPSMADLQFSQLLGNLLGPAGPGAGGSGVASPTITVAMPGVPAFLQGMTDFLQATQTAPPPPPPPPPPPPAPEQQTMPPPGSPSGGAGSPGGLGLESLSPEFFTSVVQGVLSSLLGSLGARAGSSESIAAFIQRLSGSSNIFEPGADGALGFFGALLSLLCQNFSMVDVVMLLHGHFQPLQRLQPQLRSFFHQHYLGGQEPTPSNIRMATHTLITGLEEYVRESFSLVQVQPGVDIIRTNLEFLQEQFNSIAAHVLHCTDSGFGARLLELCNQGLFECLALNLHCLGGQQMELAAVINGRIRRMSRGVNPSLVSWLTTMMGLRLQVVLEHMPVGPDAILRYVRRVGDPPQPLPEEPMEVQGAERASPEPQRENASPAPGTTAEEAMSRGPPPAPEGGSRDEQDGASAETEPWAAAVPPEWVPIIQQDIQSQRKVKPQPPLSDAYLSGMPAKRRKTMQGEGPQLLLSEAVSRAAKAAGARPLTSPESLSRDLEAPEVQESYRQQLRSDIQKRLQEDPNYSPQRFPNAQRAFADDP
UniProt P33241: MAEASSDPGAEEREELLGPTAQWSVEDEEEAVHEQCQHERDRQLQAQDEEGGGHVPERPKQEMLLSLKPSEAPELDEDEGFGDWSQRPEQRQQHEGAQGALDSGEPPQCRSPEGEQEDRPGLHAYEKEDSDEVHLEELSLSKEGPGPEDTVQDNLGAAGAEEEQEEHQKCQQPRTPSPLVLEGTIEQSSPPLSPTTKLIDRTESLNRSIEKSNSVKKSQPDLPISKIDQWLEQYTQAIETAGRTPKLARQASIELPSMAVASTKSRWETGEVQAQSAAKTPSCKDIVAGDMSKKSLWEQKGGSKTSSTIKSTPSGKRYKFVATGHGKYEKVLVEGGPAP

Target: T-cell Immunoglobulin and Mucin Domain 3 (TIM-3) (human (endogenous in monocyte-derived macrophages)) (UniProt Q8TDQ0)
Assay: co-IP; TIM-3 precipitated from whole MDM lysates (Pierce IP lysis buffer, protease inhibitors) with 1 ug monoclonal anti-TIM-3 antibody and Dynabeads Protein G; SDS-PAGE and western blot for BAT-3 or LSP-1; for LSP-1 also cells treated with GAL-9 for 10 min before lysis

binding	Substance
binds	HLA-B-associated transcript 3 (BAT3) (from UniProt P46379 1-1132)
binds	lymphocyte-specific protein 1 (LSP-1) (from UniProt P33241 1-339)
